Values from PubChem BioAssay AID1259254 (NCATS, 2017).
This is an unselected part of about 59,000 deposited reagents. Of all reagents, about 1,550 (2.6%) got an active call. 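G2 share is only a proxy for re-replication; each gene was hit by three separate siRNAs, and active genes were retested.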 Raw values are not corrected between plates. Entries without a mark were called inactive. Reagents against one gene are numbered here. No sequences are given here. Not given: the amount of reagent.

- Aim: 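Genome-wide screen for genes that prevent DNA re-replication in cancer cells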 (primary screen)
- Cell system: human HCT116 colorectal cancer cells
- Reagents: single siRNA against human genes
- Time to read-out: 3 days
- Measured: 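Imaged Hoechst DNA stain sorts each cell into a cycle phase by DNA amount; per plate, G2 fraction set to 0% for non-targeting and 100% for GMNN siRNA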
- Scale: G2 robust z-score and G2 cells, % of GMNN control: higher = more G2 cells, more excess DNA replication; raw share of cells in G2: higher = larger share of cells with G2 DNA content
- Rule for the call: 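An siRNA counts as active if its G2 robust z-score lies at least 5 MADs above the screen median; here such calls match roughly 38% of GMNN control or more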

target gene,reagent,G2 robust z-score,"G2 cells, % of GMNN control",raw share of cells in G2 (%)
PCID2 (GeneID 55795),1,-0.138,2,5.29
PCID2 (GeneID 55795),2,0.247,4.7,6.09
PCID2 (GeneID 55795),3,0.0156,3.08,4.12
UGT1A1 (GeneID 54658),1,3.67,28.8,14.8
UGT1A1 (GeneID 54658),2,0.395,5.75,6.37
UGT1A1 (GeneID 54658),3,-0.469,-0.329,5.8
ADD3 (GeneID 120),1,1.57,14,10.1
ADD3 (GeneID 120),2,-0.214,1.46,4.54
ADD3 (GeneID 120),3,-1.22,-5.63,2.8
IRX2 (GeneID 153572),1,3.28,26,15.6
IRX2 (GeneID 153572),2,1.14,11,8.72
IRX2 (GeneID 153572),3,-0.995,-4.03,4.03
RGS21 (GeneID 431704),1,-0.441,-0.136,3.76
RGS21 (GeneID 431704),2,0.963,9.74,7.38
RGS21 (GeneID 431704),3,-0.274,1.04,5.22
TRMT10A (GeneID 93587),1,-0.494,-0.507,5.44
TRMT10A (GeneID 93587),2,-0.296,0.884,5.35
TRMT10A (GeneID 93587),3,-1.15,-5.13,2.54
ZNF616 (GeneID 90317),1,0.926,9.49,6.35
ZNF616 (GeneID 90317),2,0.17,4.17,4.61
ZNF616 (GeneID 90317),3,-0.139,1.99,4.22
PPEF1 (GeneID 5475),1,2.86,23.1,12.3
PPEF1 (GeneID 5475),2,-0.124,2.09,4.93
PPEF1 (GeneID 5475),3,1.1,10.7,6.72
MAP1LC3A (GeneID 84557),1,-0.0303,2.75,5.19
MAP1LC3A (GeneID 84557),2,0.354,5.46,6.81
MAP1LC3A (GeneID 84557),3,-0.954,-3.75,3.87
DSTN (GeneID 11034),1,-0.299,0.865,5.32
DSTN (GeneID 11034),2,0.205,4.41,5.96
DSTN (GeneID 11034),3,-0.00321,2.94,4.28
SECTM1 (GeneID 6398),1,-0.248,1.22,5.49
SECTM1 (GeneID 6398),2,-0.63,-1.46,3.64
SECTM1 (GeneID 6398),3,-0.268,1.08,3.74
PM20D1 (GeneID 148811),1,-0.226,1.38,3.55
PM20D1 (GeneID 148811),2,-0.428,-0.0471,3.81
PM20D1 (GeneID 148811),3,0.982,9.88,5.96
LRRC8D (GeneID 55144),1,-0.503,-0.572,4.3
LRRC8D (GeneID 55144),2,4.51,34.7,18.5
LRRC8D (GeneID 55144),3,-0.639,-1.53,2.65
SPDYE5 (GeneID 442590),1,0.615,7.29,6.18
SPDYE5 (GeneID 442590),2,0.36,5.5,4.99
SPDYE5 (GeneID 442590),3,-0.605,-1.29,3.12
MAP3K15 (GeneID 389840),1,-0.552,-0.918,5.3
MAP3K15 (GeneID 389840),2,-0.427,-0.0369,5.18
MAP3K15 (GeneID 389840),3,-0.479,-0.402,3.55
CXCL3 (GeneID 2921),1,0.5,6.49,8.34
CXCL3 (GeneID 2921),2,-0.334,0.621,4.31
CXCL3 (GeneID 2921),3,3.29,26.1,13.7
